Results reported in PubChem BioAssay AID330 (DTP/NCI, 2004).
The list is a part of this screen's results and no random one: it gathers tests that were run many times, whatever their T/C, doses with no T/C, and many T/C values between a quarter and a half above the control. Further doses and runs are listed elsewhere. T/C is the treated group as % of the vehicle group. Some doses have a count of surviving animals in place of a T/C: the source holds a T/C of zero for them, seemingly a mark for toxic or unscored doses. Some survivor counts are full or nearly so, which does not show that the dose was tolerated: survival well below the control is almost never listed, so the zero probably covers shortened survival too. Survivors were counted at the toxicity check, usually on the fifth day, unless a day is given; later deaths do not show. Schedules are NCI's codes, taken here to give the interval after Q, in days (D) or hours (H), and the number of doses after X. Some entries hold several experiments; the results are listed from low to high. For survival time, this PubChem deposit counts one and a half times the control or more as active, and values a quarter to a half above the control carry no call in these data; other NCI protocols may use other cut-offs. Some T/C values are followed by the survivors on the day toxicity was checked, most often the fifth; where none is given, no animal had died by that day.

Tested on: P388 leukemia ip, CD2F1 mice, survival T/C
Test: NCI In Vivo Anticancer Drug Screen. Data for tumor model P388 Leukemia (intraperitoneal) in CD2F1 (CDF1) mice
Conditions: T/C endpoint: median survival time, higher T/C = longer survival
[1] = dose: 200.0 mg/kg/injection, schedule: Q01DX005 (ip), vehicle: Klucel (hydroxypropylcellulose) (HPC)
[2] = dose: 25.0 mg/kg/injection, schedule: Q01DX009 (ip), vehicle: saline with Tween-80
[3] = dose: 400.0 mg/kg/injection, schedule: Q04DX002 (ip), vehicle: saline with Tween-80

## Nc1ncc2[nH]c(N)nc2n1
dose: 100.0 mg/kg/injection, schedule: Q01DX005 (ip), vehicle: Klucel (hydroxypropylcellulose) (HPC)
  survivor count: 2 of 6
[1]
  survivor count: 0 of 6

## COc1cc(C=Nc2ccc(C(=O)O)cc2)ccc1N(CCCl)CCCl
dose: 16.5 mg/kg/injection, schedule: Q04DX003 (ip), vehicle: saline with Tween-80
  T/C: 130 % of control
dose: 25.0 mg/kg/injection, schedule: Q04DX003 (ip), vehicle: saline with Tween-80, evaluated on day 20
  T/C: 140 % of control [5 of 6 alive]
dose: 25.0 mg/kg/injection, schedule: Q04DX003 (ip), vehicle: saline with Tween-80, evaluated on day 30
  T/C: 125 % of control [5 of 6 alive]
dose: 100.0 mg/kg/injection, schedule: Q04DX003 (ip), vehicle: saline with Tween-80
  survivor count: 4 of 6

## CCCCCCCCCCCC(C)[N+](C)(C)[O-] (centres undefined)
dose: 100.0 mg/kg/injection, schedule: Q01DX009 (ip), vehicle: saline
  survivor count: 6 of 6
dose: 200.0 mg/kg/injection, schedule: Q01DX009 (ip), vehicle: saline
  survivor count: 0 of 6

## O=C(O)C[N-]c1ccccc1.O=C(O)C[N-]c1ccccc1.[Ni+2]
[2]
  survivor count: 6 of 6

## COc1cc2c(cc1OC)C(Cc1cccs1)=NCC2
[1]
  survivor count: 2 of 5

## COc1ccc(/C=N\N=C(/[O-])c2ccc(Cl)cc2)cc1.COc1ccc(/C=N\N=C(/[O-])c2ccc(Cl)cc2)cc1.[Ni+2].[OH3+].[OH3+]
dose: 200.0 mg/kg/injection, schedule: Q04DX002 (ip), vehicle: saline with Tween-80
  survivor count: 3 of 6
[3]
  survivor count: 6 of 6

## CCCCC([Se])=Nc1ccc(Br)cc1
dose: 50.0 mg/kg/injection, schedule: Q01DX009 (ip), vehicle: Klucel (hydroxypropylcellulose) (HPC)
  survivor count: 1 of 6
dose: 100.0 mg/kg/injection, schedule: Q01DX009 (ip), vehicle: Klucel (hydroxypropylcellulose) (HPC)
  survivor count: 0 of 6
dose: 200.0 mg/kg/injection, schedule: Q01DX009 (ip), vehicle: Klucel (hydroxypropylcellulose) (HPC)
  survivor count: 0 of 6

## COC(=O)C(C)N(CCCl)P(=O)(N1CC1)N1CC1 (centres undefined)
dose: 15.0 mg/kg/injection, schedule: Q01DX005 (ip), vehicle: saline
  T/C: 136 % of control
dose: 60.0 mg/kg/injection, schedule: Q01DX005 (ip), vehicle: saline
  survivor count: 6 of 6
dose: 120.0 mg/kg/injection, schedule: Q01DX005 (ip), vehicle: saline
  survivor count: 1 of 6
dose: 240.0 mg/kg/injection, schedule: Q01DX005 (ip), vehicle: saline
  survivor count: 0 of 6

## O=C(NC1CCC1)OCc1c(COC(=O)NC2CCC2)c(-c2ccc(Cl)c(Cl)c2)n2c1CCC2
dose: 1.56 mg/kg/injection, schedule: Q01DX009 (ip), vehicle: distilled water + Tween-80
  survivor count: 6 of 6
dose: 6.25 mg/kg/injection, schedule: Q01DX009 (ip), vehicle: distilled water + Tween-80, evaluated on day 30
  T/C: 148 % of control
dose: 6.25 mg/kg/injection, schedule: Q01DX009 (ip), vehicle: distilled water + Tween-80, evaluated on day 45
  T/C: 142 % of control
dose: 12.5 mg/kg/injection, schedule: Q01DX009 (ip), vehicle: distilled water + Tween-80
  T/C: 147 % of control
dose: 100.0 mg/kg/injection, schedule: Q01DX009 (ip), vehicle: distilled water + Tween-80
  survivor count: 4 of 6 and 6 of 6
dose: 200.0 mg/kg/injection, schedule: Q01DX009 (ip), vehicle: distilled water + Tween-80
  survivor count: 1 of 6

## O=C(NCN1CCOCC1)c1ccccc1O
[3]
  survivor count: 5 of 5

## O=C(O)[C@@H](NC(=O)C(Cl)(Cl)Cl)[C@@H]1CC(Br)=NO1
dose: 30.0 mg/kg/injection, schedule: Q01DX005 (ip), vehicle: distilled water + Tween-80
  T/C: 127 and 139 % of control
dose: 60.0 mg/kg/injection, schedule: Q01DX005 (ip), vehicle: distilled water + Tween-80
  T/C: 131 % of control
dose: 120.0 mg/kg/injection, schedule: Q01DX005 (ip), vehicle: distilled water + Tween-80
  T/C: 140 % of control

## CC1OCC(Br)([N+](=O)[O-])CO1 (centres undefined)
dose: 6.25 mg/kg/injection, schedule: Q01DX009 (ip), vehicle: saline with Tween-80
  T/C: 130 % of control
[2]
  survivor count: 6 of 6
dose: 50.0 mg/kg/injection, schedule: Q01DX009 (ip), vehicle: saline with Tween-80
  survivor count: 0 of 6
dose: 100.0 mg/kg/injection, schedule: Q01DX009 (ip), vehicle: saline with Tween-80
  survivor count: 0 of 6
dose: 200.0 mg/kg/injection, schedule: Q01DX009 (ip), vehicle: saline with Tween-80
  survivor count: 0 of 6
